Test results: PubChem BioAssay AID1457 (National Center for Advancing Translational Sciences (NCATS), 2008)
Values joined by “and” are separate entries in the source; they are usually repeats but may differ in a detail not shown here. Equal entries are not always repeated. Most of the hits are listed elsewhere, so they are rarer here than in the full data. Active and inactive are the calls of the source. Calls follow the shape of the dose curve; as a rule, active = well fitted inhibition curve with a large enough effect; inconclusive = small, poorly fitted or top-dose-only effect; inactive = no such curve, though single readings can be large or run the other way.

assay: qHTS Assay for Identifying the Cell-Membrane Permeable IMPase Inhibitors: Potentiation with Lithium; settings: CHO-M1 cells, IP1 TR-FRET (IP-One), carbachol + lithium; at 59.4 µM (top of the series);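 also: IP1 builds up when IMPase is blocked and the TR-FRET signal falls; plate controls were basal vehicle for no effect and high inhibitor control for full effect; nearly all actives have a fitted effect of over 50% in size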
Excerpt: NIH Chemical Genomics Center [NCGC]
NIH Molecular Libraries Probe Production centers Network [MLPCN]
Assay Submitter (PI): Wei Zheng
Lithium has been widely used for the treatment of bipolar disorder. But lithium has a narrow therapeutic index and it can cause side effects such as thirst, weight gain, tremor, polyuria and memory problems. Although the mechanism for lithium action in treatment of bipolar disorder is still not fully understood, inhibition of inositol monophosphatase (IMPase) and the subsequent depletion of the inositol pool in living cells have been implicated as the primary therapeutic benefit of lithium therapy. […]
To identify new cell-permeable IMPase inhibitors, we developed a cell-based IMPase assay in which the cytosolic IP1 is measured by a time-resolved fluorescence resonance energy transfer (TR-FRET) assay. […]
A Chinese hamster ovary (CHO) cell line stably expressing the M1 receptor (CHO-M1) was obtained from ATCC and maintained in F-12 Kaighn's media (Invitrogen, Carlsbad, CA) supplemented with 10 % FBS, 100 units/ml penicillin, 100 ug/ml streptomycin and 250 ug/ml geneticin at 37C, 5% CO2 in a humidified atmosphere. […] AC50 values were determined from concentration-response data modeled with the standard Hill equation. […]
(7) Detect the assay plate (Ex = 320, Em1 =665 and Em2 620) in a ViewLux plate reader.

| SMILES | activity, negative = IMPase inhibition |
| --- | --- |
| CN1C2CCC1CC(OC(=O)C(O)c1ccccc1)C2 (configuration not stated) | inactive: 34.3% and inactive: 39.4% |
| CN1[C@@H]2CC[C@H]1CC(OC(=O)[C@@H](O)c1ccccc1)C2 (some centres not stated) | inactive: 10.8% and inactive: 32.6% |
